Assay [1] addresses T1, NMI (HA- or Myc-tagged, transfected HeLa cells, Fig. 4D-H) (human) (UniProt Q13287).
T1 sequence: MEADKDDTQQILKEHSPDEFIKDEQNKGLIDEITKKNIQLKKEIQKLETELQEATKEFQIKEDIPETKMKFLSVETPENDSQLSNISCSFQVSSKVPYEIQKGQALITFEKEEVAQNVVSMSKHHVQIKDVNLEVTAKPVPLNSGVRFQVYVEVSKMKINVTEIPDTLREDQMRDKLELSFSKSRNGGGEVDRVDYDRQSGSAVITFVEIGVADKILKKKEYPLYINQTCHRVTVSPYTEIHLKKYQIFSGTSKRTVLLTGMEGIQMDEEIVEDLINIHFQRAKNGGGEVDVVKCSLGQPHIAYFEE
The assay can be described thus: co-IP; HeLa cells transfected with the indicated plasmids; immunoprecipitated with anti-Myc Ab, immunoblotted with anti-HA Ab. In general terms: A western blot detects proteins with antibodies after separation by electrophoresis.

By UniProt entry, the sequences of proteins in these tests, tags left out.
UniProt Q04206: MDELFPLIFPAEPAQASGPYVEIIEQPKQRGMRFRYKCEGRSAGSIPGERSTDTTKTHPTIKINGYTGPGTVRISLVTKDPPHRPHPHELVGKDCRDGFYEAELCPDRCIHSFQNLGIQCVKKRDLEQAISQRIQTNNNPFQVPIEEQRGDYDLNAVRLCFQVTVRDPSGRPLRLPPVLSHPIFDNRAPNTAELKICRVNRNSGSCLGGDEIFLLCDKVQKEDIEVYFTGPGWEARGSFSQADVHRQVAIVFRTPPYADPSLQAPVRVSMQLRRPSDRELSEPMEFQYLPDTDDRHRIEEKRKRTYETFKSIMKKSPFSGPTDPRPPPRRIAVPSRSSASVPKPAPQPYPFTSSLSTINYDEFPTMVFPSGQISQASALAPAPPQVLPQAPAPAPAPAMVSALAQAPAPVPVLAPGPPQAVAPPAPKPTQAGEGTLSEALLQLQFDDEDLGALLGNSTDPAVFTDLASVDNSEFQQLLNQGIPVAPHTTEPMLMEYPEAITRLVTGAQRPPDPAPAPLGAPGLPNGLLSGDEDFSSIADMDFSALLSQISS

The target of a further assay is HA-p65, Q04206. The assay can be described thus: co-IP; two-step co-IP; HEK293T co-transfected with HA-p65, FLAG-NMI and Myc-IκBα; first IP anti-FLAG, elution with FLAG peptide in lysis buffer with 250 mM NaCl, second IP anti-HA in lysis buffer with 300 mM NaCl; 4 °C. Conditions: remark: other sources report otherwise.
In another assay the target is Myc-p65 (UniProt Q04206). As to the kind of experiment: co-IP; 293T cells transfected with Myc-p65 and FLAG-NMI, lysed 24 h after transfection; immunoprecipitated with anti-FLAG or anti-Myc Abs, immunoblotted with anti-Myc or anti-FLAG Abs.

Results are given in words; binding and its absence hold for the method and conditions named. In cells and extracts the contact can be indirect. Some binding calls cover weakened binding; strength is not graded here. Where a sequence is shown, tags or fusion partners need not be part of it.

B1: c-Rel (protein, UniProt Q04864 1-619)
chain: MASGAYNPYIEIIEQPRQRGMRFRYKCEGRSAGSIPGEHSTDNNRTYPSIQIMNYYGKGKVRITLVTKNDPYKPHPHDLVGKDCRDGYYEAEFGQERRPLFFQNLGIRCVKKKEVKEAIITRIKAGINPFNVPEKQLNDIEDCDLNVVRLCFQVFLPDEHGNLTTALPPVVSNPIYDNRAPNTAELRICRVNKNCGSVRGGDEIFLLCDKVQKDDIEVRFVLNDWEAKGIFSQADVHRQVAIVFKTPPYCKAITEPVTVKMQLRRPSDQEVSESMDFRYLPDEKDTYGNKAKKQKTTLLFQKLCQDHVETGFRHVDQDGLELLTSGDPPTLASQSAGITVNFPERPRPGLLGSIGEGRYFKKEPNLFSHDAVVREMPTGVSSQAESYYPSPGPISSGLSHHASMAPLPSSSWSSVAHPTPRSGNTNPLSSFSTRTLPSNSQGIPPFLRIPVGNDLNASNACIYNNADDIVGMEASSMPSADLYGISDPNMLSNCSVNMMTTSSDSMGETDNPRLLSMNLENPSCNSVLDPRDLRQLHQMSSSSMSAGANSNTTVFVSQSDAFEGSDFSCADNSMINESGPSNSTNPNSHGFVQDSQYSGIGSMQNEQLSDSFPYEFFQV
As for B1, the binding result in assay [1] is “binds”.

B2: Myc-IκBα, P25963 1-317 (protein)
chain: MFQAAERPQEWAMEGPRDGLKKERLLDDRHDSGLDSMKDEEYEQMVKELQEIRLEPQEVPRGSEPWKQQLTEDGDSFLHLAIIHEEKALTMEVIRQVKGDLAFLNFQNNLQQTPLHLAVITNQPEIAEALLGAGCDPELRDFRGNTPLHLACEQGCLASVGVLTQSCTTPHLHSILKATNYNGHTCLHLASIHGYLGIVELLVSLGADVNAQEPCNGRTALHLAVDLQNPDLVSLLLKCGADVNRVTYQGYSPYQLTWGRPSTRIQQQLGQLTLENLQMLPESEDEESYDTESEFTEFTEDELPYDDCVFGGQRLTL
In the case of B2, the binding entry with HA-p65, Q04206 is listed as “binds”.

B3: FLAG-NMI (protein, UniProt Q13287 1-307)
chain: T1 sequence
For B3, the binding entry with Myc-p65 is “binds”.

B4: p100/52 (protein, UniProt Q00653-1 1-900)
chain: MESCYNPGLDGIIEYDDFKLNSSIVEPKEPAPETADGPYLVIVEQPKQRGFRFRYGCEGPSHGGLPGASSEKGRKTYPTVKICNYEGPAKIEVDLVTHSDPPRAHAHSLVGKQCSELGICAVSVGPKDMTAQFNNLGVLHVTKKNMMGTMIQKLQRQRLRSRPQGLTEAEQRELEQEAKELKKVMDLSIVRLRFSAFLRASDGSFSLPLKPVISQPIHDSKSPGASNLKISRMDKTAGSVRGGDEVYLLCDKVQKDDIEVRFYEDDENGWQAFGDFSPTDVHKQYAIVFRTPPYHKMKIERPVTVFLQLKRKRGGDVSDSKQFTYYPLVEDKEEVQRKRRKALPTFSQPFGGGSHMGGGSGGAAGGYGGAGGGGSLGFFPSSLAYSPYQSGAGPMGCYPGGGGGAQMAATVPSRDSGEEAAEPSAPSRTPQCEPQAPEMLQRAREYNARLFGLAQRSARALLDYGVTADARALLAGQRHLLTAQDENGDTPLHLAIIHGQTSVIEQIVYVIHHAQDLGVVNLTNHLHQTPLHLAVITGQTSVVSFLLRVGADPALLDRHGDSAMHLALRAGAGAPELLRALLQSGAPAVPQLLHMPDFEGLYPVHLAVRARSPECLDLLVDSGAEVEATERQGGRTALHLATEMEELGLVTHLVTKLRANVNARTFAGNTPLHLAAGLGYPTLTRLLLKAGADIHAENEEPLCPLPSPPTSDSDSDSEGPEKDTRSSFRGHTPLDLTCSTKVKTLLLNAAQNTMEPPLTPPSPAGPGLSLGDTALQNLEQLLDGPEAQGSWAELAERLGLRSLVDTYRQTTSPSGSLLRSYELAGGDLAGLLEALSDMGLEEGVRLLRGPETRDKLPSTAEVKEDSAYGSQSVEQEAEKLGPPPEPPGGLCHGHPQPQVH
Turning to B4, the binding entry in assay [1] is “binds”.
